This passage reports z-score results from PubChem BioAssay AID1347423 (Functional Genomics Laboratory (NCATS/FGL), 2020).

Among all 52,000 sequences or so, about 210 (0.4%) were called active.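 How the source made its calls: active means gene whose silencing raises cell survival under the drug, median off-target-corrected z-score across its silencing RNAs 2 or more; inactive means the rest.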 Some of the results follow.

This test is described as follows: Resistance to Poly (ADP-Ribose) Polymerase inhibitor: Gene Identification via Genome-wide siRNA Screen. Particulars: mouse BRCA2 R2336H ES cells, olaparib, CellTiter-Glo viability; stronger effect = higher value. In outline:
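Mouse BRCA2 R2336H ES cells were reverse-transfected with siRNA (20 nM final), treated at 48 h with 500 nM olaparib, and read by CellTiter-Glo after 72 h. Scores: MAD-based z per siRNA, median per gene, seed off-target correction.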
(In general: In ATP-based viability assays light output follows the ATP content of the culture.)
With GGAAAUUGUCUUUGGCUUUTT against Otop1, the z-score was inactive: -0.254.
The same measure for GGCUCACAAUGAAAAAGGUTT against BC030314: inactive: -1.03; for CCCUAAAAGACAAAGUGCUTT against Cklfsf3: inactive: 0.903; for GCUUAACAGGAGCAUUGGCTT against Raly: inactive: -1.81.
As to GGAAAGCUACUGUCAGAGUTT against Olfr473, the z-score was inactive: 0.453.
For GGUGCUAUUAUCGUGGAUCTT against AW538196 the value was inactive: 1.36; for CGUUAGUGCUGGUUAAUGATT against Cdk5r1, inactive: -0.0496.
For CCACGAUUUCCCAAUCCUGTT against Fiz1 the value was inactive: 1.28.
For GGAAGAUAGAGCAUAUAUCTT against Tm4sf13 the value was inactive: 1.14.
Regarding GGUCAUGAACCUCAUCAUCTT against Hem1, the z-score was inactive: 0.918.
Consider “GGAUCAGCUGGACAUUCUUTT against 1500011H22Rik”, for which the z-score is inactive: -1.1.
Regarding GGUCUGGAGAUUGUAUUUUTT against Ptpn21, the z-score is inactive: -1.97.
For GGUGGUGACCUCCACAGAUTT against Clcnka the value was inactive: -1.88; for “GGAAGCUGUGCUCUCCAUGTT against C920025J10”, inactive: -0.548; for “GGCUUUGUGCUUUAACCUUTT against 6430401A05Rik”, inactive: 0.992.
Turning to GGAGGGUAGGUCCUUUGUATT against Pcdhb16, the z-score is inactive: -2.42.
GCCGCUGAACAAUUUAUCCTT against Rnase6: the z-score was inactive: -0.817.
Turning to “GCAGAGGCUCUCCUUAUAGTT against 2900054P12Rik”, the z-score is inactive: -0.379.
For GGUGGACAAGUUCAAAGCCTT against Apg4d the value was inactive: 1.06.
The same measure for GCUUUUCAGCAUGGAUUUATT against Rab6ip1: inactive: -0.518.
As for GGCUUCACAUUUUGGCAGUTT against Stat6, the z-score was inactive: 0.718.
The same measure for GCCCUGUUUACACCUCUGATT against Sec23a: inactive: 0.352; for GAUGUACUUAUUCAUGAUGTT against Olfr353: inactive: -0.222; for “GCUGGCUAGCCAUAACCAUTT against 4933414G08”: inactive: -0.58.
For GGUUCUGUUCCCAUGAGAATT against Ntng2, the z-score was inactive: -0.999.
Regarding CCGGUAUGGCAAAAGCCAUTT against Pomt1, the z-score is inactive: -0.591.
For the sequence GGUUAAACAGCUCCAUUUUTT against Padi2, the z-score was inactive: 1.03.
For “GGAAGAGAACAACAUCUUUTT against 2810405F18Rik” the value was inactive: -0.0432; for “GGGAUGAAAUCAAUUGUACTT against C820005L12Rik”, inactive: -0.423; for “GCAAUGUUCGCUUGAAACUTT against 9430099J10Rik”, inactive: -0.126.
In the case of GGUAGUGAUUACGAACCAATT against Hey1, the z-score is inactive: -0.536.
On to GCAUAAACAGCGACAAAUGTT against Mrpl36, for which the z-score is inactive: 0.0889.
On to GGUGUUAUGCAAAAUUCAGTT against Slc7a6, for which the z-score is inactive: 2.
For the sequence GGCAAUACAGGCAUCUUCATT against V1rc4, the z-score is inactive: -0.0103.
The same measure for GGUACAAUUCUUCUUUCGUTT against Olfr1420: inactive: -0.0511.
Consider “CGCGAUUGCACUCUUAUUATT against 2610001J05Rik”, for which the z-score is inactive: 0.0985.
With “GUACCUCUACUAUUCCUUUTT against 4833428E21Rik”, the z-score is inactive: 0.0656.
As for GCUCCACACUACGUGUCAUTT against Olfr476, the z-score was inactive: 0.352.
Take GGGCAUCACUUGUAAUUAATT against Bcl10: the z-score is inactive: -2.03.
For GGUUCGAAAUUUUCUAACCTT against Gpr50 the value was inactive: -0.377.
For GCUAAUCUCUCAAAUGUUUTT against Kpna1 the value was inactive: 1.35; for CCCACCUUCCGACUUGAAUTT against Col12a1, inactive: -0.248; for GGAUUCGUUCAGCUAAGGGTT against Olfr1023, inactive: 0.156.
In the case of GCUACAGUCGUUGUUUGAATT against Serpinf1, the z-score was inactive: 0.897.
In the case of GGUCUUAGCUGUCCUCAAGTT against Olfr273, the z-score is inactive: -0.377.
Regarding “GGAUGAGUGCAGCAAAAGUTT against 9230109N16”, the z-score was inactive: 1.64.
For CACUAGUUGCUGGUCUUACTT against AA415817, the z-score was inactive: -1.47.
The same measure for “GGACUUGUUCUUGUACAGCTT against 2610510B01Rik”: inactive: 1.76; for “GGAGAAUUGCCUAUUUGAATT against D330022A01Rik”: inactive: 0.882.
Consider CUAUGACACUUGGUUCCAUTT against LOC381680, for which the z-score is inactive: -2.12.
For GGUGAACUGUUCUUCCUCATT against Icam1, the z-score is inactive: -3.34.
Regarding CCUUGAAAUUCGUUAUCAUTT against Tmc7, the z-score is inactive: 1.43.
With “CCCGAGCCUCAAGAUUUACTT against 2310042L06Rik”, the z-score was inactive: 0.364.
With GCUAUUGUUGUUGCAUCUGTT against V1rd4, the z-score is inactive: 0.0375.
“GGAAACACCUUUGAGGCUCTT against 2410012C07Rik”: the z-score was inactive: -0.17.
For GGAGCAUCCCUACGAUGCATT against Atp6v1f the value was inactive: -0.575.
As for CCUGCUAUUUCUAUAUAACTT against Galnact2, the z-score was inactive: 0.408.
With GGAAGGGCCACUUAAUGCUTT against Zzz3, the z-score is inactive: 0.221.
With GCAACAUAUGGUAUACUGUTT against Mdm4, the z-score is inactive: 1.52.
For the sequence “GGAUGUUUGCUCUUGAGCGTT against 2610034N03Rik”, the z-score was inactive: 0.18.
On to GGCAAAUAUGAACGUGCACTT against Ptcd2, for which the z-score is inactive: 0.00701.
With GGUUUUUUAUUCCUGAUGGTT against Slc35f1, the z-score is inactive: 0.627.
As for GGCGAGUUCCAGAUUCUUCTT against Car3, the z-score was inactive: 1.26.
In the case of CGGGUGAAGAAACAAAAAUTT against Nap1l1, the z-score is inactive: 0.596.
For GGAGAUGGUUAUGUGGGAUTT against Tgoln2 the value was inactive: -1.23.
With GGAACUACGAAGUCUGUUCTT against Elavl1, the z-score is inactive: 0.98.
For GGGAUUCCUAUUUCACAUCTT against BC023488 the value was inactive: -0.437.
For CGACAUAUAAAAUUGUUCCTT against Cobl the value was inactive: -0.911; for CCACAUCUUCACAAUGUCCTT against Cdk8, inactive: -1.02.
As to GGACCAGAAGAGGAUGGUCTT against Ndn, the z-score was inactive: 1.5.
Consider GCUUCAUGGAUGCAAUUGATT against Adhfe1, for which the z-score is inactive: -0.205.
For GCCCAUUUUAGUAAACGAATT against Dspp the value was inactive: -0.0241; for GGAACAUGUUCUGCAUUUATT against Rab40b, inactive: -2.23.
Turning to GGAUUCCUGAUUUCUUCAUTT against Snip1, the z-score was inactive: -0.071.
The same measure for “GGCUCAGCUCCAGCAUAAUTT against 4833436C18Rik”: inactive: -0.949; for “CCAACGACUAAGAGAAGAGTT against 2610019F03Rik”: inactive: 0.225; for GGCCAAAGGAGUUCAUGAUTT against Gcm2: inactive: -0.789.
As to “CCAUAUGUCACUGCACUUATT against A930041G11Rik”, the z-score was inactive: 0.297.
For CCUGCUCUUCGUUAUCUUGTT against Olfr552, the z-score is inactive: 0.567.
With “GGACACAAGCCUAUUCCAATT against 1700051E09Rik”, the z-score was inactive: -0.442.
With GCACAACUCAGAAGUAAUUTT against Ghr, the z-score is inactive: -0.192.
On to CCCUCACUGCUCAAAUUCUTT against Ifna12, for which the z-score was inactive: -0.159.
The same measure for “GGACAGAUCCCAUUCAAAUTT against D15Bwg0669e”: inactive: 1.32.
For GGAGGAUCACCCAUCAAAUTT against Oxct1 the value was inactive: 0.6.
For GCAAGGUAUUCCAUGCUCATT against LOC545925, the z-score was inactive: -0.828.
For the sequence GGAAAAAUGAACUUCAGUGTT against Cetn2, the z-score is inactive: -0.422.
In the case of GGAAGUUACAGAUGUGGCUTT against Nog, the z-score is inactive: 0.475.
Take “GUGUGCCAAAACCGAGAGUTT against 1700127D06Rik”: the z-score is inactive: 0.713.
For the sequence GGACUAUCCUCACUCCCUUTT against Pigo, the z-score is inactive: -1.92.
Regarding GGAAGUGUGGUGAAACUGUTT against Clecsf8, the z-score was inactive: -0.25.
As for “GGAUUUCAACGUGGCAGUUTT against 2310046G15Rik”, the z-score was inactive: 0.875.
Turning to GGGAUCAUCUCUUUUGCUGTT against Olfr720, the z-score was inactive: -0.484.
With “GGUCAAGGAAUUAGUGAUUTT against 1700055O19Rik”, the z-score was inactive: 0.375.
As for “GGAAGAAAGAAAGAACAGATT against D13Bwg1146e”, the z-score was inactive: 1.48.
The same measure for GGGAAGGGUGAUGCAGAUCTT against Prkcq: inactive: -1.42; for GGAAAUCAGAAUUCCAAAATT against Cntn6: inactive: 0.984.
Regarding GCGACCAUGACAAACACAATT against Brd7, the z-score was inactive: 0.48.
Consider GCCCAGUACGAAGAAAUCATT against Dkk4, for which the z-score was inactive: 1.51.
For CAGCGAUCCAAGUACCUGGTT against Mbp the value was inactive: -1.94; for “GCAUGUUCGUGGAAGUACUTT against 1700083M11Rik”, inactive: -0.892; for GGCGCAAGCAAAGAAACAUTT against Pbx3, inactive: 0.582.
Turning to CGGUCACAUCUCUACUGCATT against Tas2r138, the z-score was inactive: -0.656.
Take GGGAUUGACAUUGGAUGGGTT against Gabarap: the z-score is inactive: -0.0443.
